These results are taken from PMC9243176, “Multifaceted regulation of the sumoylation of the Sgs1 DNA helicase” (The Journal of Biological Chemistry, 2022).

The target in data set [1] is T1, Esc2 (Saccharomyces cerevisiae) (UniProt Q06340).
T1 sequence (looked up, limits assumed): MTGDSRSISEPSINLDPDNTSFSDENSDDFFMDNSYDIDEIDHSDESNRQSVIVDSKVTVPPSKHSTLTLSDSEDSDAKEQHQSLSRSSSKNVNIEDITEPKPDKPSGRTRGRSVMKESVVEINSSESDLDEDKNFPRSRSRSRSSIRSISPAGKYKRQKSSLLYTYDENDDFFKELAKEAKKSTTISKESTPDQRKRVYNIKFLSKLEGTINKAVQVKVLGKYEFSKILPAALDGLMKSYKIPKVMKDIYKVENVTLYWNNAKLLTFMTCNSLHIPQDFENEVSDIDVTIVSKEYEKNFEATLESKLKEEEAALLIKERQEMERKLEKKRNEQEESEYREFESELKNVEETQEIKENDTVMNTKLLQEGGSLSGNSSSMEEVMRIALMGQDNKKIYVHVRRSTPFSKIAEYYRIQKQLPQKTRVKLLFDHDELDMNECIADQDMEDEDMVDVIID
Put plainly: EMSA. Particulars: 5-80 nM Esc2, 5 nM DNA; 35 mM Tris-HCl pH 7.5, 1 mM DTT, 100 ug/ml BSA, 5 mM MgCl2, 130 mM KCl, 30 C, 10 min; native PAGE in TAE (6.5% STR and E3, 7% Esc2); recombinant protein.

For another data set, the system named is Mms21 + Smc5. Put plainly: EMSA. Conditions: 5-40 nM E3, 5 nM DNA, moderate DNA binding; 35 mM Tris-HCl pH 7.5, 1 mM DTT, 100 ug/ml BSA, 5 mM MgCl2, 130 mM KCl, 30 C, 10 min; native PAGE in TAE (6.5% STR and E3, 7% Esc2); recombinant protein.

The exact form of at least one protein or probe is not confirmed. For some assays here: Weaker means in comparison with the reference protein, sequence or condition of that experiment. For some assays here: Protein sequences can lack the tags named with them. For some assays here: At least one verdict rests on a figure or table, not on a statement of the authors.

In the case of “TTGATAAGAGGTCATTTGAATTCATGGCTTAGAGCTTAATTGCTGAATCTGGTGCTGGGATCCAACATGTTTTAAATATG (double strand) [dsDNA (H3/H4)]”, the values for the binding result (in data set [1]; with Mms21 + Smc5) were “binds more weakly” and “binds”, respectively.
